Key:
[1] = test system: differentiating ReNcell VM NPCs; details: human, 72 h
Protocol: (§1) On-chip cultures of undifferentiated and 10-day differentiated NPCs were stamped with WellChips filled with compound-containing solutions and incubated for 72 hr prior to viability assessment. Vehicle-control normalized viabilities were plotted against compound concentration to generate dose-response plots (Figures 5A and S4). […] The sigmoidal fits for undifferentiated and differentiating NPCs were compared to assess whether differential sensitivities (i.e., different IC50 values) existed for the screened compounds.
(§2) Cell viability was determined in 3D on-chip cultures using a mammalian cell viability assay (LIVE/DEAD, Invitrogen). Prior to the assay, dead cell controls were prepared with 30 min incubation in a WellChip containing either […] 0.5% (w/v) saponin-DMEM/F12 medium in its microwells. […] After staining, PillarChips were rinsed twice with warm DPBS and incubated in DPBS containing 50 mM trehalose (Sigma) for 10 min before rapid drying with nitrogen and storage in the dark. Dried PillarChips were imaged with a Thermo Scientific Cellomics ArrayScan VTI high-content system.
(§3) Undifferentiated and differentiated microchip cultures were prepared as described above. Chemicals were purchased from Sigma or the NIH Small Molecule Repository (Table S2). Concentrated stocks were prepared and diluted into ReNcell Maintenance Medium to prepare the highest screened concentration solution for each compound. Four-fold serial dilutions were made in ReNcell Maintenance Medium, with all solutions having a final concentration of 0.5% or 1% DMSO (v/v) and 20 μg/mL Matrigel. For undifferentiated cultures, the solutions also contained 20 ng/mL of EGF and FGF2. These solutions were printed into WellChips, covered with a gas-permeable membrane, and warmed at 37°C for at least 5 min before stamping with cells. Each WellChip contained six compounds each at six concentrations (n = 10 biological replicates for each concentration) and the appropriate medium containing 0.5% or 1% DMSO for vehicle and dead controls (n = 32 biological replicates per control). PillarChip cultures were incubated with compounds for 72 hr with daily medium exchange to freshly prepared WellChips containing compounds at the appropriate concentrations. […] On-chip toxicity screens were repeated three times for undifferentiated and differentiated cultures. […]

[2] = test system: undifferentiated ReNcell VM NPCs; details: human, 72 h
Protocol: as §1, §2, §3

| SMILES | Normalized viability at Cmax, Differentiating, Mean ± SEM [1] | Normalized viability at Cmax, Undifferentiated, Mean ± SEM [2] |
| --- | --- | --- |
| CN(C)CCOC(c1ccccc1)c1ccccc1 [Diphenhydramine] | -0.02 ± 0.08 | -0.07 ± 0.02 |
| CCCNCC(O)COc1ccccc1C(=O)CCc1ccccc1 (stereo not shown) [Rythmol] | 1.09 ± 0.20 | 0.08 ± 0.12 |
